According to paper PMC5999394, “Design principles of a microtubule polymerase” (eLife, 2018):
These are yes or no findings as the source states them, for the method shown. Some binding calls cover weakened binding; strength is not graded here. Sequences can lack the tags named with a protein.

The chains behind the UniProt entries cited, without tags or fusion partners. Where a name states a change or a piece, a line headed by the entry shows the natural chain unless it says otherwise.
UniProt P09733: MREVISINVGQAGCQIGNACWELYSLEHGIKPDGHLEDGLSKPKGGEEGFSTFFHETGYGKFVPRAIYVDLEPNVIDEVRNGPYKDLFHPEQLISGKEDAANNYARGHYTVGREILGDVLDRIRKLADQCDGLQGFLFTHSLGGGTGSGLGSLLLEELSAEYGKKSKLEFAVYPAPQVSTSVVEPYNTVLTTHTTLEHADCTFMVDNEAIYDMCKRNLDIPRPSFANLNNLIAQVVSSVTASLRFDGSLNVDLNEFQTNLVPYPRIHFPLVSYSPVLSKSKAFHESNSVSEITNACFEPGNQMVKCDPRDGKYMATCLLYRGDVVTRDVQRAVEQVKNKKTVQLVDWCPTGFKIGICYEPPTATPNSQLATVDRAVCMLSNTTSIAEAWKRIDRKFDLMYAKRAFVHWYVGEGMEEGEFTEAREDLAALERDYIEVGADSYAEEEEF
UniProt P02557: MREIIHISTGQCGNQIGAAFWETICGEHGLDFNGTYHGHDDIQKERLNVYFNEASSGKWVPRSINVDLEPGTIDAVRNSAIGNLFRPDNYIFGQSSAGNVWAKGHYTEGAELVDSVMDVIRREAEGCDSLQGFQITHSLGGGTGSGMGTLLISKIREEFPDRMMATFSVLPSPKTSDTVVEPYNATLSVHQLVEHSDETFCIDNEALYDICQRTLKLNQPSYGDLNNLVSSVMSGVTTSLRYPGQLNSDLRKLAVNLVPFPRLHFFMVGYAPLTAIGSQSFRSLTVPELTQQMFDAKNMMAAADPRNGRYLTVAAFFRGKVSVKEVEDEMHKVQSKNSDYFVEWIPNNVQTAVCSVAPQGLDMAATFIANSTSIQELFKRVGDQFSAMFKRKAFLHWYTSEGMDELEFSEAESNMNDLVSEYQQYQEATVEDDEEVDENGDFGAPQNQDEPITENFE

Target: wild-type yeast microtubules (polymerized wild-type yeast αβ-tubulin) (S. cerevisiae) (UniProt P09733+P02557)
Test: TIRF microscopy of Zyg-9-mCherry on stabilized microtubules; 50 nM Zyg-9-mCherry on unlabeled GTPγS-stabilized yeast microtubules, without or with 5 μM bovine tubulin as competing binding partner; both purified

binding: binds
B1: mCherry-tagged Zyg-9 (protein, UniProt G5EEM5 1-1415)
chain: MSNWDYLDEVDILPKLPPNFDELRESKKWQERKEALEALLKVLTDNERLSTKASYAELIGHLQMVLAKDANINCQALAAKCIGKFATGLRAKFSSFAGPLLPVIFEKMKEKKPMLREPLVDCSNEVGRTMQSLETGQEDILAALAKPNPQIKQQTALFVARQLDLVVPAKQPKGFIKAVVPVFGKLTGDADQDVREASLQGLGAVQRIIGDKNVKNLLGDASSDEGKMKKIGEYAEKSTASFAEEQAKNAPPVAPTSSTPSASAASGDPSGGTATAVVSSGAPVAEADPWDFLDAFDVLSKMPDGFDTNIESKKWQERKEALEGLLQLITANPKLDPKANYGALVERLQKVLEKDANINVAALAANCITGIANGLRTKFQPFAVSVTPIIFEKFKEKKPTLRDPLVACIDAVVATTNLEAVGEIVLAALGKPNPSIKTQTDLFLQRCFMKLNSQTMPKKTLKTLIPSLIKHSGDSDSEVREASYAAMGAMMRAIGEKPSLQLLADIASDNLKMSKIKEFHQKALDEAGPAEIAEMVKSIHKADAPPAAAPPKKTAPPKKQPEDEEVVEEEDEPLKPPPGDKKKKVPVKENEENEPPVVAPKAELLLSDNEDKKQRIKEEKQLKLVKWNFQAPTDEHISQLQTLLGNQAKVSLMSQLFHKDFKQHLAALDSLVRLADTSPRSLLSNSDLLLKWCTLRFFETNPAALIKVLELCKVIVELIRDTETPMSQEEVSAFVPYLLLKTGEAKDNMRTSVRDIVNVLSDVVGPLKMTPMLLDALKSKNARQRSECLLVIEYYITNAGISPLKSLSVEKTVAPFVGDKDVNVRNAAINVLVACFKFEGDQMWKAAGRMADKDKSLVEERIKRTGVKPGSGVVTSPPTGGPKILVPQQQGSVVRRPASRSRTREPEPEEVQSDTFTIRQDTMPPKTSSRYALRDDVFSSAMGRLDGTQVITPPQPVNGWSNNTFQMKRTNSSSSISSIDTSDQIQRSINNISSSLADVAQDAMFQVTYVLNQPEQRHLVDRRADLVFRASAAQLDLVIEEFNAGRDVSGTMDACTQMLFILMGGVETEHGLEPLNASPDTVKAIISSVLRCIIQIGNTESGYGMARSLNRLAMRLIYRVELSNLLCGLILAMTESLQMNTGITELVSKLSSKWCDELEKRRAQLRASDIVDSFNAFYVCALTELKMDISDSHILIVDNYLERVILQQGDVVLDAARRLSRPHMHLTSMINKILQMMRERKIDPIMPGTLEARMPQEDEAVVVRSGVQVSIDNILRDTSMAVKHIEQLNILIASSDRSWNEYMEYLKNNPMGELIKELVGECSRKKRIDFNLSHVVKSSMAVFKAMAATGPVQEEGRITPTDINRMDTMIVGTPLSRGDATITRARGNMIRPKRTTLSRDQMANIRHTLDRVKNH
